The target of this experiment is MACF1 (human (endogenous in PEO-4, SKOV-3 or T1074)) (UniProt Q9UPN3). Nature of the experiment: cross-linking; in cellulo cross-linking with mass spectrometry (XL-MS): three million PEO-4, SKOV-3 or T1074 cells in 200 µL DPBS, 2 mM DSSO, 37 °C, 1 h; subcellular fractionation, FASP digestion (trypsin/Lys-C, chymotrypsin), nanoLC-MS/MS, XlinkX in Proteome Discoverer.

Chains of the proteins cited; added tags and fusions are not shown.
UniProt P08670: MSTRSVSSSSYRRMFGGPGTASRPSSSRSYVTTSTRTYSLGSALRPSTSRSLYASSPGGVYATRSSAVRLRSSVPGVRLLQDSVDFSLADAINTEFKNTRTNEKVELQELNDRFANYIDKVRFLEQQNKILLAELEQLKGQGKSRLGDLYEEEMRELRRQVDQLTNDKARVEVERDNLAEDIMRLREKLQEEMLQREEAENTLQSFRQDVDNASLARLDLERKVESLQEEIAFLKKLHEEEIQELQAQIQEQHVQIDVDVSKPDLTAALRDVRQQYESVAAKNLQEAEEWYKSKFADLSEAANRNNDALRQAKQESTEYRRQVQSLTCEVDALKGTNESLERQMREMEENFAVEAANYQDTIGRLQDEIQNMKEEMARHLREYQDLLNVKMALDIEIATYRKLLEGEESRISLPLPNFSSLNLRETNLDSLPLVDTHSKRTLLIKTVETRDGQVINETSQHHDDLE

No constants are given. Whether binding was seen depends on the method and setting. In cells and extracts the contact can be indirect. Some entries that bind do so weakly or less than the wild type.

As for VIM (from UniProt P08670 1-466), the binding result is “binds”.

Values taken from PMC11442847.
